The test system of test [1] is ReNCell VM. Briefly: neuronal differentiation score (DCX+ cell fraction vs untreated, manual image score) (score (-3 to 3)); higher = more neuronal differentiation. Conditions: 2 uM, 2 weeks.
Test [2] has as its system ReNCell VM. Briefly: dopaminergic neuron differentiation score (TH+ cell fraction vs untreated, manual image score) (score (0 to 3)); higher = more TH+ dopaminergic neuron differentiation. Conditions: 2 uM, 4 weeks, BDNF 10 ng/ml + GDNF 10 ng/ml.

Structures can show the parent of a compound that is named as a salt. The list shows a part of the results. Single values are uncertain here, since repeats match poorly.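 Human fetal ventral-midbrain neural progenitor line ReNCell VM, differentiated without mitogens. Images stained for doublecortin (early neurons) or tyrosine hydroxylase (dopaminergic neurons) were scored by blinded raters against untreated wells (0 = no change). Repeats and both raters were averaged, and compounds averaging 2 or higher were picked as hits for retesting.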

On to `O=c1oc2cc(O)ccc2cc1-c1ccc2c(c1)OCCO2`, for which the neuronal differentiation score in test [1] (library: Natural) is inactive: 0. Moreover, in test [2] (library: Natural), the “dopaminergic neuron differentiation score” value was inactive: 0.

On to `CC(C)/C(O)=C1/C(=O)O[C@@H](c2ccoc2)[C@]2(C)C(O)[C@@H](O)[C@@]34OC5(C)OC67CC(C)(C(O)[C@]6(O)[C@@H](O)[C@]3(O5)C12)[C@H](CC(=O)O)[C@]74C` (stereo not given in full), for which the neuronal differentiation score in test [1] (library: Spectrum) is inactive: 0. Besides, in test [2] (library: Spectrum), the “dopaminergic neuron differentiation score” value was inactive: 0.

As to `O=C(O)CN(CCN(CC(=O)O)CC(=O)O)CC(=O)O.[Na+].[Na+].[Na+]`, the neuronal differentiation score in test [1] (library: Spectrum) is inactive: 0. For the same compound, the “dopaminergic neuron differentiation score” value in test [2] (library: Spectrum) is inactive: 0.

With `CO[C@H]1/C=C/O[C@@]2(C)Oc3c(C)c(O)c4c(O)c(c(/C=N/N5CCN(C)CC5)c(O)c4c3C2=O)NC(=O)/C(C)=C\C=C\[C@H](C)[C@H](O)[C@@H](C)[C@@H](O)[C@@H](C)[C@H](OC(C)=O)[C@@H]1C` [Rifampicin], in test [1] (library: Prestwick), the neuronal differentiation score was inactive: 0. In addition, the “dopaminergic neuron differentiation score” value in test [2] (library: Prestwick) is inactive: 1.

`CC[C@@H]1Cc2cc(O)ccc2C2=C1c1ccc(O)cc1C[C@H]2CC` [(R,R)-cis-Diethyl tetrahydro-2,8-chrysenediol]: in test [1] (library: LOPAC), the neuronal differentiation score is inactive: 0. Moreover, in test [2] (library: LOPAC), the “dopaminergic neuron differentiation score” value was inactive: 0.

Take `COc1ccc(/C=C/C(=O)c2ccc(O)cc2O)cc1`: the neuronal differentiation score in test [1] (library: Spectrum) was inactive: 0. Besides, the “dopaminergic neuron differentiation score” value in test [2] (library: Spectrum) was inactive: 0.

For the compound `C[N+](C)(C)CC(O)CC(=O)[O-]` (stereo not given), the neuronal differentiation score in test [1] (library: Spectrum) is inactive: 0. Further, the “dopaminergic neuron differentiation score” value in test [2] (library: Spectrum) was inactive: 0.

With `c1ccc2nc(C3=NCCN3)cnc2c1` [BU 239 hydrochloride], the neuronal differentiation score in test [1] (library: Tocriscreen) is inactive: 0. Moreover, the “dopaminergic neuron differentiation score” value in test [2] (library: Tocriscreen) was inactive: 0.

On to `CC(=O)Nc1cc2ccccc2oc1=O`, for which, in test [1] (library: Spectrum), the neuronal differentiation score was inactive: 0. Moreover, in test [2] (library: Spectrum), the “dopaminergic neuron differentiation score” value is inactive: 0.

For the compound `CC(N)C(=O)OC(C)(C)Cc1ccc(Cl)cc1` (stereo not given), in test [1] (library: Spectrum), the neuronal differentiation score was inactive: 0. In addition, the “dopaminergic neuron differentiation score” value in test [2] (library: Spectrum) was inactive: 0.

As to `N[C@H]1CONC1=O`, the neuronal differentiation score in test [1] (library: Spectrum) was inactive: 0. For the same compound, the “dopaminergic neuron differentiation score” value in test [2] (library: Spectrum) was inactive: 0.

Turning to `Cc1cc(OC(=O)c2c(C)cc(O)cc2O)cc(O)c1C(=O)O` [lecanoric acid], the neuronal differentiation score in test [1] (library: Natural) is inactive: 0. The “dopaminergic neuron differentiation score” value in test [2] (library: Natural) is inactive: 0.

Consider `Cc1c(N)c(=O)n(-c2ccccc2)n1C` [Ampyrone], for which the neuronal differentiation score in test [1] (library: Prestwick) was inactive: 0. Moreover, in test [2] (library: Prestwick), the “dopaminergic neuron differentiation score” value is inactive: 0.

On to `CCc1c2c(nc3ccc(OC(=O)N4CCC(N5CCCCC5)CC4)cc13)-c1cc3c(c(=O)n1C2)COC(=O)[C@]3(O)CC` [Irinotecan hydrochloride trihydrate], for which the neuronal differentiation score in test [1] (library: Prestwick) was inactive: 0. Besides, the “dopaminergic neuron differentiation score” value in test [2] (library: Prestwick) was inactive: 0.

As for `CO[C@@]1(NC(=O)C(C(=O)O)c2ccc(O)cc2)C(=O)N2C(C(=O)O)=C(CSc3nnnn3C)CO[C@@H]21` (stereo not given in full) [Moxalactam disodium salt], the neuronal differentiation score in test [1] (library: Prestwick) is inactive: 0. Also, the “dopaminergic neuron differentiation score” value in test [2] (library: Prestwick) is inactive: 0.

As for `CC1(C)OC(=O)C(OCC2CC2)=C1c1ccc(S(C)(=O)=O)cc1`, the neuronal differentiation score in test [1] (library: Spectrum) is inactive: 0. For the same compound, the “dopaminergic neuron differentiation score” value in test [2] (library: Spectrum) is inactive: 0.

Take `C[N+]1(C)CCC(OC(=O)C(O)(c2ccccc2)C2CCCC2)C1` (stereo not given): the neuronal differentiation score in test [1] (library: Spectrum) was inactive: 0. Further, the “dopaminergic neuron differentiation score” value in test [2] (library: Spectrum) was inactive: 0.

Take `CC(C)c1c(O)c(-c2cc3c(c(C(C)C)c2O)CCC2C(C)(C)CCC[C@]32C)cc2c1CCC1C(C)(C)CCC[C@]21C` (stereo not given in full): in test [1] (library: Spectrum), the neuronal differentiation score was inactive: 0. The “dopaminergic neuron differentiation score” value in test [2] (library: Spectrum) was inactive: 0.

`CC1(C)S[C@@H]2[C@H](NC(=O)COc3ccccc3)C(=O)N2[C@H]1C(=O)O`: the neuronal differentiation score in test [1] (library: Spectrum) was inactive: 0. Moreover, the “dopaminergic neuron differentiation score” value in test [2] (library: Spectrum) was inactive: 0.

With `NCCS(=O)(=O)O`, the neuronal differentiation score in test [1] (library: Spectrum) is inactive: 0. For the same compound, the “dopaminergic neuron differentiation score” value in test [2] (library: Spectrum) was inactive: 0.

On to `Clc1ccc(C(Cn2ccnc2)OCc2csc3c(Cl)cccc23)c(Cl)c1` (stereo not given) [Sertaconazole nitrate], for which the neuronal differentiation score in test [1] (library: Prestwick) is inactive: 0. Further, the “dopaminergic neuron differentiation score” value in test [2] (library: Prestwick) is inactive: 0.

Consider `NCCCCC(=O)O`, for which the neuronal differentiation score in test [1] (library: Spectrum) was inactive: 0. Moreover, the “dopaminergic neuron differentiation score” value in test [2] (library: Spectrum) was inactive: 0.

For the compound `COc1cccc(C(=O)NCCN2CCN(c3ccc(Cl)cc3)CC2)c1`, the neuronal differentiation score in test [1] (library: LOPAC) was inactive: 0. Further, the “dopaminergic neuron differentiation score” value in test [2] (library: LOPAC) was inactive: 0.

For `C=C1C2CC[C@@]3(C)[C@H](c4ccoc4)OC(=O)C[C@]13O[C@H]1CC(O)C(C)(C)C(CC(=O)OC)[C@@]21C` (stereo partly drawn) [3alpha-HYDROXY-3-DEOXYANGOLENSIC ACID METHYL ESTER], the neuronal differentiation score in test [1] (library: Spectrum) is inactive: 0. The “dopaminergic neuron differentiation score” value in test [2] (library: Spectrum) is inactive: 0.

With `O=C(O)Cn1c(C(=O)Nc2nc(-c3ccccc3Cl)cs2)cc2ccccc21`, the neuronal differentiation score in test [1] (library: Tocriscreen) is inactive: 0. In test [2] (library: Tocriscreen), the “dopaminergic neuron differentiation score” value was inactive: 0.

Turning to `CC(C)NC(=N)NC(=N)Nc1ccc(Cl)cc1`, the neuronal differentiation score in test [1] (library: Spectrum) is inactive: 0. Also, the “dopaminergic neuron differentiation score” value in test [2] (library: Spectrum) was inactive: 0.

With `CNc1ncnc2c1ncn2[C@@H]1O[C@H](CO)[C@@H](O)[C@H]1O` [N6-methyladenosine], the neuronal differentiation score in test [1] (library: Prestwick) is inactive: 0. In addition, the “dopaminergic neuron differentiation score” value in test [2] (library: Prestwick) was inactive: 0.

`CC(=O)SCC(Cc1ccccc1)C(=O)NCC(=O)OCc1ccccc1` (stereo not given) [Racecadotril]: the neuronal differentiation score in test [1] (library: Prestwick) is inactive: 0. For the same compound, the “dopaminergic neuron differentiation score” value in test [2] (library: Prestwick) is inactive: 0.

In the case of `O=C(O)CCc1nc(-c2ccccc2)c(-c2ccccc2)o1`, in test [1] (library: Spectrum), the neuronal differentiation score is inactive: 0. Moreover, the “dopaminergic neuron differentiation score” value in test [2] (library: Spectrum) is inactive: 0.

As to `O=C(N/N=C/c1ccc([N+](=O)[O-])o1)c1ccc(O)cc1`, the neuronal differentiation score in test [1] (library: Spectrum) is inactive: 0. Besides, the “dopaminergic neuron differentiation score” value in test [2] (library: Spectrum) was inactive: 0.

Regarding `CCc1ccc2c(-c3cccc(Cl)c3)nc(=O)n(CC)c2n1`, the neuronal differentiation score in test [1] (library: Tocriscreen) was inactive: 0. The “dopaminergic neuron differentiation score” value in test [2] (library: Tocriscreen) was inactive: 0.

On to `CC12CCC(C(=O)O)(C(=O)C1=O)C2(C)C` (stereo not given), for which the neuronal differentiation score in test [1] (library: Natural) is inactive: 0. Also, in test [2] (library: Natural), the “dopaminergic neuron differentiation score” value was inactive: 0.

For the compound `Cc1cc(=O)oc2c(O)c(O)ccc12`, the neuronal differentiation score in test [1] (library: Spectrum) was inactive: 0. In addition, the “dopaminergic neuron differentiation score” value in test [2] (library: Spectrum) is inactive: 0.

`CC(C)CCCC(C)N` (stereo not given): in test [1] (library: Spectrum), the neuronal differentiation score was inactive: 0. Also, the “dopaminergic neuron differentiation score” value in test [2] (library: Spectrum) was inactive: 0.

Take `OCC1OC(n2cnc3c(NC4CCCC4)nc(Cl)nc32)C(O)C1O` (stereo not given) [2-Chloro-N6-cyclopentyladenosine]: the neuronal differentiation score in test [1] (library: Tocriscreen) is inactive: -3. The “dopaminergic neuron differentiation score” value in test [2] (library: Tocriscreen) was inactive: 0.

In the case of `COc1c(O[C@@H]2O[C@H](CO)[C@@H](O)[C@H](O)[C@H]2O)cc2c(c1OC)-c1ccc(OC)c(=O)cc1[C@@H](NC(C)=O)CC2` [Colchicoside], in test [1] (library: Phytochemical), the neuronal differentiation score is inactive: 0. Also, in test [2] (library: Phytochemical), the “dopaminergic neuron differentiation score” value was inactive: 0.

In the case of `CC(C)NCC(O)COc1cccc2ccccc12` (racemic), the neuronal differentiation score in test [1] (library: Spectrum) is inactive: -1. Also, the “dopaminergic neuron differentiation score” value in test [2] (library: Spectrum) is inactive: 0.

Consider `O=C(Nc1ccc([N+](=O)[O-])cc1O)Nc1ccccc1Br`, for which the neuronal differentiation score in test [1] (library: Tocriscreen) is inactive: 0. Further, the “dopaminergic neuron differentiation score” value in test [2] (library: Tocriscreen) is inactive: 0.

`Oc1ccc(OCc2ccccc2)cc1`: the neuronal differentiation score in test [1] (library: Spectrum) is inactive: 0. The “dopaminergic neuron differentiation score” value in test [2] (library: Spectrum) is inactive: 0.

As for `CC(C)=CCCC1(C)C=Cc2c(c(C)cc3c2[nH]c2ccccc23)O1` (stereo not given) [mahanimbine], the neuronal differentiation score in test [1] (library: Natural) is inactive: 0. In addition, the “dopaminergic neuron differentiation score” value in test [2] (library: Natural) is inactive: 0.

These data come from the supplement of paper PMC4635364.
